Assay results published in the supplement of paper PMC10849652.
This is one part of the list.

Amino acid sequences for entries named in this document (tags omitted). A change or cut given only in a name is not applied to a line headed by its entry.
UniProt Q6ZVK8: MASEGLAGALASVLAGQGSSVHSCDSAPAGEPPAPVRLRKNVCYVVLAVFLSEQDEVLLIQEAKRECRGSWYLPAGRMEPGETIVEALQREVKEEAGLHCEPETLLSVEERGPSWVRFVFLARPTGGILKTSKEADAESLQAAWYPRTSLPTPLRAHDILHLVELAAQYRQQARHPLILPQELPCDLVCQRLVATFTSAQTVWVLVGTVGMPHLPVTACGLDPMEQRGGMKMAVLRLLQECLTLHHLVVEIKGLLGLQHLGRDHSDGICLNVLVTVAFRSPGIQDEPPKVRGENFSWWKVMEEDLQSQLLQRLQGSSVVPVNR
UniProt P16083: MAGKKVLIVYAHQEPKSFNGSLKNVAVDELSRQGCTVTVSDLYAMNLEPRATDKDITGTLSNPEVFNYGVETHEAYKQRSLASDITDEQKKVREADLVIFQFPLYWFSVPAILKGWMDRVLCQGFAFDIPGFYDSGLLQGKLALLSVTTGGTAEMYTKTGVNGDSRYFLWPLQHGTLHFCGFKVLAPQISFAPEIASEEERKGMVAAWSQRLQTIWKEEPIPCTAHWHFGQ
UniProt Q9BRQ3: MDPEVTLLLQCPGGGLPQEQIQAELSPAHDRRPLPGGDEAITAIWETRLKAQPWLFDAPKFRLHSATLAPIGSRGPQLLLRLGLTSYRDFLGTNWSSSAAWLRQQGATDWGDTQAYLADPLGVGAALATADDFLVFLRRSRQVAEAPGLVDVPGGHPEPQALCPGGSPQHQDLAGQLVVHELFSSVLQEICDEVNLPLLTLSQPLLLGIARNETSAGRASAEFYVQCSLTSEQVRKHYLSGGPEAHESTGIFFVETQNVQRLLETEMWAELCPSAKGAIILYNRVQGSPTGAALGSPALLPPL
UniProt O75052: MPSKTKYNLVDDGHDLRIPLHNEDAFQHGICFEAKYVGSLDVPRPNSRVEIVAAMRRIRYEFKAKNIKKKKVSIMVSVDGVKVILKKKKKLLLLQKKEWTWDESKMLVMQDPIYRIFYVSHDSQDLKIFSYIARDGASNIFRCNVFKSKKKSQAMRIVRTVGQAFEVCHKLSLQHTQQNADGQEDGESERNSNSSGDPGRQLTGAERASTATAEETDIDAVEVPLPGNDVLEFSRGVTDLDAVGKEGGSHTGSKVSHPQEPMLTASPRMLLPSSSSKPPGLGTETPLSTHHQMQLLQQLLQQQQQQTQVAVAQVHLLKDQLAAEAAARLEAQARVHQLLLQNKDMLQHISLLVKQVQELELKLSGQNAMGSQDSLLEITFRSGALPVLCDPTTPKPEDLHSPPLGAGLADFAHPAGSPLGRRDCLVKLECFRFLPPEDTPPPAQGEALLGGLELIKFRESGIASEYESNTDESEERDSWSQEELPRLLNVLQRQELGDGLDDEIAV
UniProt O96028: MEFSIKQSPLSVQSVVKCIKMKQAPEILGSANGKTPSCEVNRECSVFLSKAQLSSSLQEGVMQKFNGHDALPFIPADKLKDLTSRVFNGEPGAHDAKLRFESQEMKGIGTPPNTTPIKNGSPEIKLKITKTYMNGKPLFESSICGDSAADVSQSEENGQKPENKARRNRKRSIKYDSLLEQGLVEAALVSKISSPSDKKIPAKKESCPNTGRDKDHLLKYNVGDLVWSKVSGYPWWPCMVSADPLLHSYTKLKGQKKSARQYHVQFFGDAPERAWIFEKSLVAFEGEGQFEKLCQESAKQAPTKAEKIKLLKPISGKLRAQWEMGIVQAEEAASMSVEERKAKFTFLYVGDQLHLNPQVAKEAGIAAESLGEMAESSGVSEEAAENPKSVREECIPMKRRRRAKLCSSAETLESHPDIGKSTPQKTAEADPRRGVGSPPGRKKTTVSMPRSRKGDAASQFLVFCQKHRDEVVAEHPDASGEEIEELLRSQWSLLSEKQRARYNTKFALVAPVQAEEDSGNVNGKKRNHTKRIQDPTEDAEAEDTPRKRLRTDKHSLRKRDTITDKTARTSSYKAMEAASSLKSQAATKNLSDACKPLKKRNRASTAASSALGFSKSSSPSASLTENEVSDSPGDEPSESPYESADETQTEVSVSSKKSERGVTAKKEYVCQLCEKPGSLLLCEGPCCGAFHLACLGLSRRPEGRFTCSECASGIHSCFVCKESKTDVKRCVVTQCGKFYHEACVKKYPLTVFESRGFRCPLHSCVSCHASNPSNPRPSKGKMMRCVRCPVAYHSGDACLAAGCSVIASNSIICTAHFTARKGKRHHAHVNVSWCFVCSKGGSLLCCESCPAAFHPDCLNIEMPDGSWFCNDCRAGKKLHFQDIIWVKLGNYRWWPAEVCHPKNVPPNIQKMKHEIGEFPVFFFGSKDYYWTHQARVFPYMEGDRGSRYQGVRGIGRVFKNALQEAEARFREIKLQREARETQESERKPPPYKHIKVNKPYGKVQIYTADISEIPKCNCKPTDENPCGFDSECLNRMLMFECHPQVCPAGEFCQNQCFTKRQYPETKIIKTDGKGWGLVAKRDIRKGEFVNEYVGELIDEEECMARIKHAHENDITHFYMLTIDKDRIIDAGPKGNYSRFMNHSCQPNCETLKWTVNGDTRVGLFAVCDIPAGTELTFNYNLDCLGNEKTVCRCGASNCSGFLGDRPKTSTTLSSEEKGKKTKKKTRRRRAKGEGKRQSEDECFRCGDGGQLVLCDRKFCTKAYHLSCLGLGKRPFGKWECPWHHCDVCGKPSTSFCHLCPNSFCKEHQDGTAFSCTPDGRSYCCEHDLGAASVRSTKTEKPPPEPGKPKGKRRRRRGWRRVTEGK
UniProt Q76FK4: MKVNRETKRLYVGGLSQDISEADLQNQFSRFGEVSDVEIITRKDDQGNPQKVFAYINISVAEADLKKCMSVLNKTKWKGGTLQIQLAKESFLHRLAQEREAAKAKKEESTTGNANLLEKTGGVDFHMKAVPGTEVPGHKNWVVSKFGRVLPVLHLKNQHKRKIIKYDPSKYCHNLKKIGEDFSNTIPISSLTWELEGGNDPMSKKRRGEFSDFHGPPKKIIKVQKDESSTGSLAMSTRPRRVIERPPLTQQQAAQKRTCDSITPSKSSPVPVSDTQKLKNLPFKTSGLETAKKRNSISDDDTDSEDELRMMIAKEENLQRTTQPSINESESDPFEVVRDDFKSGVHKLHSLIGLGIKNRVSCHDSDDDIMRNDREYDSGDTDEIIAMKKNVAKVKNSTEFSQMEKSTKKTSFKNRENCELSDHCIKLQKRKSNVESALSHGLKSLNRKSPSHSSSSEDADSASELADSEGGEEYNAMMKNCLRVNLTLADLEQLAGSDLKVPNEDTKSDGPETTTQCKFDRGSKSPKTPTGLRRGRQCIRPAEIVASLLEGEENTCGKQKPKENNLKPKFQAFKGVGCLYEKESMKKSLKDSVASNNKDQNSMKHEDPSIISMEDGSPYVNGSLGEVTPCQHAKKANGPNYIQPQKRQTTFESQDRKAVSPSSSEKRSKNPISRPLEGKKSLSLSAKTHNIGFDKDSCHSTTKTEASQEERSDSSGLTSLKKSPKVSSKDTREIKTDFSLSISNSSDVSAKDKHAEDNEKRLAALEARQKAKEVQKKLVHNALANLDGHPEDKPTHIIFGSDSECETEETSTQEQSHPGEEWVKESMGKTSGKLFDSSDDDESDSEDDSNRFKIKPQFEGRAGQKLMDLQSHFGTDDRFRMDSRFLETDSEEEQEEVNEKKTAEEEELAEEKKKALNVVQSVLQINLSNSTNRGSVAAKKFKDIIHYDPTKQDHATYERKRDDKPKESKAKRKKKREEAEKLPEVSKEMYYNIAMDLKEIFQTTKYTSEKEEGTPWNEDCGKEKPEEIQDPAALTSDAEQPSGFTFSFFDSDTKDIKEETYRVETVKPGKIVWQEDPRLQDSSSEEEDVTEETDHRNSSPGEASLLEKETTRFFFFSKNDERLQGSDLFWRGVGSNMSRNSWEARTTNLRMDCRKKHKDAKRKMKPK
UniProt Q9NWW6: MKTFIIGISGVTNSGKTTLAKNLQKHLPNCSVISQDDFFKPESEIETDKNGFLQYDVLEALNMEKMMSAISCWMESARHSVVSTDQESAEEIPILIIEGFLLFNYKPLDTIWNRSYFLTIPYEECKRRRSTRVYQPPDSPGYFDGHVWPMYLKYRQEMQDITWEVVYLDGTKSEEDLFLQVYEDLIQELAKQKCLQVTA
UniProt Q92686, whole entry, looked up: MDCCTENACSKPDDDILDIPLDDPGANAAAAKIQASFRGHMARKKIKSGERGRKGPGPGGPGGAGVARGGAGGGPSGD
UniProt Q9H7Z3: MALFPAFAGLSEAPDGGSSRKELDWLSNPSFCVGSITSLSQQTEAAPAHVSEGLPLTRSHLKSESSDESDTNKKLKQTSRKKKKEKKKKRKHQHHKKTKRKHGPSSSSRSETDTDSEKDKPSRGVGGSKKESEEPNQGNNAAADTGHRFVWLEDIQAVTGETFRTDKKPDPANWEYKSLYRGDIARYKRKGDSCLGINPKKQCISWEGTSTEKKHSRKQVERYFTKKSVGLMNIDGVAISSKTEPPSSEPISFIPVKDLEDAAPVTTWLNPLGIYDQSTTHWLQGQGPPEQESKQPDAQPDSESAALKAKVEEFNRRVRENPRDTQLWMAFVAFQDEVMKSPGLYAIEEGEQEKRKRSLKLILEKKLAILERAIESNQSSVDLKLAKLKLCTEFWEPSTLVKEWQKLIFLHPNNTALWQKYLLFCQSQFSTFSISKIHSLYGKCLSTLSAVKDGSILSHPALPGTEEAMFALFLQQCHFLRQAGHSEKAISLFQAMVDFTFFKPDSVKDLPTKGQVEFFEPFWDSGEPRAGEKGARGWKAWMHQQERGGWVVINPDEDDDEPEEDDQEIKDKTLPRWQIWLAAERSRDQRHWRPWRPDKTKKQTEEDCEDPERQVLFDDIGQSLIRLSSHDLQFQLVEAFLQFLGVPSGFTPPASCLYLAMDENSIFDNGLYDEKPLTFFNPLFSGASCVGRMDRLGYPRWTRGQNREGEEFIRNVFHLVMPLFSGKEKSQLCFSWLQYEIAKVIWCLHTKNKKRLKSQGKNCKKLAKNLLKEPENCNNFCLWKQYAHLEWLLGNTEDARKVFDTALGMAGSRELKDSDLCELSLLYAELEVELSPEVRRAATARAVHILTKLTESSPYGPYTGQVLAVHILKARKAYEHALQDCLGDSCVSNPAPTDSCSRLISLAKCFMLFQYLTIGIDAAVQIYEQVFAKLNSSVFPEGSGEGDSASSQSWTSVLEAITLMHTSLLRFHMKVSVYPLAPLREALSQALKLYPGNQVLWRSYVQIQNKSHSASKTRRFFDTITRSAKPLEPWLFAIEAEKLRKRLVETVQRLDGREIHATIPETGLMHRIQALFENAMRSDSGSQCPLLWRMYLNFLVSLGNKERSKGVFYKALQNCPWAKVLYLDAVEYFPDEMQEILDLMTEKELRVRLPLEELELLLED
UniProt P29474: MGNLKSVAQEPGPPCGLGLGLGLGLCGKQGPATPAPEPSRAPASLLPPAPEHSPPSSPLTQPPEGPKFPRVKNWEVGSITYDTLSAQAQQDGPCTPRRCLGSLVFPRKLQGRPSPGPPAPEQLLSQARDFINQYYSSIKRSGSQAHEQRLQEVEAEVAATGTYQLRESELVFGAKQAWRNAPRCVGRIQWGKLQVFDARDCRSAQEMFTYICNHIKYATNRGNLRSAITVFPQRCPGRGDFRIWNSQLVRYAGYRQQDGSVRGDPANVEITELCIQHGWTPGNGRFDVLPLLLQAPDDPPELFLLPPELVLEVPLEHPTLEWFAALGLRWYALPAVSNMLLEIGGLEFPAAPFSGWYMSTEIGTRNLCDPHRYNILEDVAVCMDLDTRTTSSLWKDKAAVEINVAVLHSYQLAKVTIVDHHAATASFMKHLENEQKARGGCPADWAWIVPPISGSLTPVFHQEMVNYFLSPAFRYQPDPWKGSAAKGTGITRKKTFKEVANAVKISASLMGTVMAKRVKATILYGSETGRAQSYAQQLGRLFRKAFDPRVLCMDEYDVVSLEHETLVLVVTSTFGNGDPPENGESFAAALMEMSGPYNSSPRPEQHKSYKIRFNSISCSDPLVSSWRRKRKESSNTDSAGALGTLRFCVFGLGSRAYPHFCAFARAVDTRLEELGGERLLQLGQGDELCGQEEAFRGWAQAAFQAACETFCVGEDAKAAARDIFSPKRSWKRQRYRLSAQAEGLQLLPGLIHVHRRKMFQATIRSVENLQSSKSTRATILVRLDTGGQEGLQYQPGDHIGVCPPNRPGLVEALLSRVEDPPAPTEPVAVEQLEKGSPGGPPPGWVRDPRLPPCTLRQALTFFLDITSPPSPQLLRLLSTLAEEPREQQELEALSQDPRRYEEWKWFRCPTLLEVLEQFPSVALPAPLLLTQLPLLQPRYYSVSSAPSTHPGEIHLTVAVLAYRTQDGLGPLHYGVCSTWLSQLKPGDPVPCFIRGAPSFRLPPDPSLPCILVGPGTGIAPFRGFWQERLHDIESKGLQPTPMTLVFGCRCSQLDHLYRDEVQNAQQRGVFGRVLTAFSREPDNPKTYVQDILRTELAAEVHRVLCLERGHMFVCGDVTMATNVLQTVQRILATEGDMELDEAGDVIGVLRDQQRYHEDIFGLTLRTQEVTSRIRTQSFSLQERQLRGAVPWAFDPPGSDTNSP

Tests used:
Test in all cases: log2 fold change, soluble protein after heating vs DMSO (PISA); higher = thermal stabilisation; K562 lysate, 10 uM; active = over 0.2 and 3.5 SD of the protein, either way, in both replicates (recomputed)
vemurafenib = compound: CCCS(=O)(=O)Nc1ccc(F)c(C(=O)c2c[nH]c3ncc(-c4ccc(Cl)cc4)cc23)c1F [vemurafenib]
In short: (§1)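 Following dounce homogenisation of K562 pellets in PBS pH 7.4 with 1 mM MgCl2, crude extract at 1 mg/mL protein was incubated for 30 min with 10 μM compound. Aliquots were then heated for 3 min over 48°C-58°C and pooled, NP-40 was added to 0.5% at 4°C, and soluble protein was recovered as the supernatant at 21,000xg for 90 min. Channel-sum-equalised TMTpro 16plex LC-MS/MS quantified this protein. Each value, from duplicates, is a log-two fold change in thermal stability relative to solvent controls.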

[1] = compound: CC[C@@H]1C(=O)N(C)c2cnc(Nc3ccc(C(=O)NC4CCN(C)CC4)cc3OC)nc2N1C1CCCC1
In short: as §1

[2] = compound: CCn1c(C(=O)N(C2CC2)C2CC2)cc2c3c(ncn3C)c(Nc3cc(C)n(C)n3)nc21
In short: as §1

saracatinib = compound: CN1CCN(CCOc2cc(OC3CCOCC3)c3c(Nc4c(Cl)ccc5c4OCO5)ncnc3c2)CC1 [saracatinib]
In short: as §1

sotrastaurin = compound: CN1CCN(c2nc(C3=C(c4c[nH]c5ccccc45)C(=O)NC3=O)c3ccccc3n2)CC1 [sotrastaurin]
In short: as §1

Tubastatin A = compound: CN1CCc2c(c3ccccc3n2Cc2ccc(C(=O)NO)cc2)C1 [Tubastatin A]
In short: as §1

[3] = compound: CNC(=O)C1=CC=CC=C1NC2=NC(=NC=C2Cl)NC3=C(C=C(C=C3)N4CCOCC4)OC
In short: as §1

defactinib = compound: CNC(=O)c1ccc(Nc2ncc(C(F)(F)F)c(NCc3nccnc3N(C)S(C)(=O)=O)n2)cc1 [defactinib]
In short: as §1

[4] = compound: CNc1nc(-c2ccc3c(N)n[nH]c3c2)cc(N2C[C@@H](C(=O)NC3CCCCC3)CC[C@H]2C)n1
In short: as §1

encorafenib = compound: COC(=O)N[C@@H](C)CNc1nccc(-c2cn(C(C)C)nc2-c2cc(Cl)cc(NS(C)(=O)=O)c2F)n1 [encorafenib]
In short: as §1

[5] = compound: COC(=O)[C@H](CCSC)NC(=O)C1=C(C=C(C=C1)NC[C@H](CS)N)C2=CC=CC=C2
In short: as §1

[6] = compound: CCCS(=O)(=O)Nc1ccc(F)c(C(=O)c2c[nH]c3ncc(Cl)cc23)c1F
In short: as §1

volasertib = compound: CC[C@@H]1C(=O)N(C)c2cnc(Nc3ccc(C(=O)N[C@H]4CC[C@H](N5CCN(CC6CC6)CC5)CC4)cc3OC)nc2N1C(C)C [volasertib]
In short: as §1

alisertib = compound: COc1cc(Nc2ncc3c(n2)-c2ccc(Cl)cc2C(c2c(F)cccc2OC)=NC3)ccc1C(=O)O [alisertib]
In short: as §1

[7] = compound: COc1cc2nc(-c3cc(F)ccc3O)nc(N[C@@H]3CNC[C@H]3C(C)(C)O)c2cc1OC
In short: as §1

gefitinib = compound: COc1cc2ncnc(Nc3ccc(F)c(Cl)c3)c2cc1OCCCN1CCOCC1 [gefitinib]
In short: as §1

[8] = compound: CCn1cc(-c2ccnc3[nH]c(-c4cccc(CN(C)C)c4)cc23)c(-c2ccc(NC(=O)N(C)C)cc2)n1
In short: as §1

[9] = compound: CN1CCC(CNc2ccc3ncc(-c4cccc(OC(F)(F)F)c4)n3n2)CC1
In short: as §1

alvocidib = compound: CN1CC[C@H](c2c(O)cc(O)c3c(=O)cc(-c4ccccc4Cl)oc23)[C@H](O)C1 [alvocidib]
In short: as §1

barasertib = compound: CCN(CCCOc1ccc2c(Nc3cc(CC(=O)Nc4cccc(F)c4)[nH]n3)ncnc2c1)CCOP(=O)(O)O [barasertib]
In short: as §1

Measured: log2 fold change

NUDT6 (UniProt P53370)
inactive: vemurafenib 0.022 | [1] 0.091 | [2] -0.085 | saracatinib 0.05 | sotrastaurin -0.033 | Tubastatin A 0.042 | [3] 0.154 | defactinib -0.002 | [4] -0.024 | encorafenib -0.021 | [5] -0.015

NOL3 isoform 3 (UniProt O60936)
inactive: vemurafenib -0.04 | [6] -0.002 | volasertib 0.037 | [2] -0.101 | saracatinib -0.09 | sotrastaurin -0.048 | Tubastatin A -0.033 | [3] -0.061 | defactinib 0.165 | [4] -0.345 | alisertib -0.007 | [7] 0.031 | gefitinib -0.138

NUDT18 (UniProt Q6ZVK8)
inactive: vemurafenib -0.025 | [1] 0.039 | [2] -0.391 | [8] -0.038 | [9] 0.051 | sotrastaurin -0.064 | alvocidib -0.068 | Tubastatin A 0.324 | [3] -0.08 | defactinib 0.004 | encorafenib -0.054 | [5] 0.198

NQO2 (UniProt P16083)
inactive: vemurafenib -0.007 | [6] 0.003 | barasertib 0.107 | [1] 0.02 | volasertib 0.031 | [2] 0.004 | [8] 0.011 | [9] 0.017 | saracatinib -0.029 | sotrastaurin 0.035 | alvocidib 0.022 | Tubastatin A 0.029 | [3] 0.041 | defactinib 0 | [4] 0.024 | encorafenib -0.007 | [5] -0.054 | alisertib -0.047 | [7] -0.006 | gefitinib 0.011

NSUN4 (UniProt Q96CB9)
inactive: vemurafenib 0.192 | [6] -0.068 | barasertib 0.018 | volasertib 0.051 | [2] -0.041 | saracatinib 0.251 | sotrastaurin 0.066 | Tubastatin A -0.115 | [3] -0.134 | defactinib -0.094 | [4] 0.071 | alisertib -0.048 | [7] 0.093 | gefitinib 0.033

NSA2 (UniProt O95478)
inactive: vemurafenib -0.035 | [6] 0.101 | barasertib -0.093 | [1] 0.067 | volasertib 0.034 | [2] -0.043 | [8] -0.441 | [9] -0.221 | saracatinib -0.084 | alvocidib -0.291 | Tubastatin A -0.181 | [3] -0.017 | defactinib 0.058 | [4] 0.066 | encorafenib -0.184 | [5] -0.086 | alisertib -0.14 | [7] -0.012 | gefitinib 0.056

NUDT22 (UniProt Q9BRQ3)
inactive: vemurafenib -0.11 | [6] 0.036 | [1] -0.075 | volasertib 0.004 | sotrastaurin -0.027 | [3] 0.241 | defactinib 0.029 | encorafenib 0.072 | [5] 0.071 | alisertib -0.022 | [7] 0.005 | gefitinib -0.019

Two neighbouring entries already listed:
NUDT18 (UniProt Q6ZVK8)
inactive: vemurafenib -0.025 | [1] 0.039 | [2] -0.391 | [8] -0.038 | [9] 0.051 | sotrastaurin -0.064 | alvocidib -0.068 | Tubastatin A 0.324 | [3] -0.08 | defactinib 0.004 | encorafenib -0.054 | [5] 0.198

NQO2 (UniProt P16083)
inactive: vemurafenib -0.007 | [6] 0.003 | barasertib 0.107 | [1] 0.02 | volasertib 0.031 | [2] 0.004 | [8] 0.011 | [9] 0.017 | saracatinib -0.029 | sotrastaurin 0.035 | alvocidib 0.022 | Tubastatin A 0.029 | [3] 0.041 | defactinib 0 | [4] 0.024 | encorafenib -0.007 | [5] -0.054 | alisertib -0.047 | [7] -0.006 | gefitinib 0.011

The listing continues.

NOS1AP (UniProt O75052)
inactive: vemurafenib -0.019 | [6] -0.034 | barasertib 0.074 | [1] -0.202 | volasertib 0.018 | [2] -0.211 | [8] -0.239 | [9] 0.214 | sotrastaurin 0.117 | alvocidib -0.065 | Tubastatin A 0.143 | [3] -0.007 | defactinib -0.307 | encorafenib 0.007 | [5] 0.111 | alisertib 0.155 | [7] 0.062 | gefitinib -0.032

NSD2 (UniProt O96028)
inactive: vemurafenib 0.184 | [6] 0.229 | barasertib -0.141 | [1] 0.132 | volasertib -0.673 | [2] -0.112 | [8] 0.147 | [9] -0.12 | sotrastaurin 0.066 | alvocidib 0.013 | Tubastatin A 0.058 | defactinib -0.156 | encorafenib 0.044 | [5] 0.16 | alisertib 0.043 | [7] 0.039 | gefitinib 0.104

NMI (UniProt Q13287)
inactive: vemurafenib 0.011 | [6] -0.012 | barasertib 0.013 | [1] 0.014 | volasertib 0.014 | [2] -0.044 | [8] 0.014 | [9] 0.011 | saracatinib -0.022 | sotrastaurin -0.019 | alvocidib 0 | Tubastatin A 0.027 | [3] -0.003 | defactinib -0.004 | [4] 0.029 | encorafenib 0.001 | [5] -0.001 | alisertib 0.02 | [7] 0.003 | gefitinib 0.002

NOL8 (UniProt Q76FK4)
inactive: vemurafenib 0.113 | [6] -0.087 | volasertib -0.04 | [2] 0.073 | [8] -0.207 | [9] -0.1 | saracatinib -0.053 | sotrastaurin 0.023 | alvocidib 0.004 | Tubastatin A -0.041 | [3] 0.105 | defactinib -0.099 | [4] 0.049 | [7] 0.115

NR2C1 (UniProt P13056)
inactive: vemurafenib 0.085 | barasertib -0.02 | [8] -0.027 | [9] 0.231 | sotrastaurin -0.069 | alvocidib -0.065 | defactinib 0.03 | alisertib 0.019 | gefitinib 0.017

NME4 (UniProt O00746)
inactive: [1] -0.029 | [2] -0.019 | sotrastaurin 0.069 | Tubastatin A -0.016 | [3] 0.036 | encorafenib 0.093 | [5] 0.125

NMRK1 (UniProt Q9NWW6)
inactive: sotrastaurin 0.091

NOLC1 isoform 3 (UniProt Q14978)
inactive: [6] 0.019 | barasertib -0.056 | [1] 0.038 | volasertib 0.087 | [2] -0.137 | [8] 0.115 | [9] -0.127 | saracatinib 0.197 | sotrastaurin 0.099 | alvocidib 0.067 | Tubastatin A 0.06 | [3] 0.301 | [4] -0.07 | encorafenib -0.158 | [5] -0.119 | [7] 0.003

NRGN (UniProt Q92686)
inactive: barasertib 0.168 | saracatinib -0.245 | sotrastaurin 0.174 | [4] -0.07 | alisertib -0.068 | gefitinib -0.069

NUDT5 (UniProt C9JYY9)
inactive: [1] 0.036 | [3] 0.026 | encorafenib 0.066 | [5] -0.029 | alisertib -0.092 | gefitinib -0.075

NRDE2 (UniProt Q9H7Z3)
inactive: [6] -0.073 | barasertib 0.033 | volasertib 0.049 | [2] -0.188 | saracatinib -0.459 | Tubastatin A -0.178 | [4] -0.1 | alisertib 0.003 | [7] 0.102 | gefitinib 0.005

NOS3 (UniProt P29474)
inactive: vemurafenib 0.107 | [3] 0.127 | defactinib 0.089 | alisertib -0.166 | gefitinib -0.146

NR1D1 (UniProt P20393)
inactive: [1] 0.089 | encorafenib -0.289 | [5] 0.014

NSD3 (UniProt Q9BZ95)
inactive: barasertib -0.012 | [1] 0.067 | [2] -0.012 | [8] -0.126 | [9] 0.024 | saracatinib -0.054 | sotrastaurin -0.016 | alvocidib -0.044 | Tubastatin A -0.118 | [4] 0.068 | encorafenib 0.149 | [5] -0.135 | alisertib -0.077 | gefitinib 0.092

NME3 (UniProt H3BPR2)
inactive: [6] 0.141 | volasertib 0 | [7] 0.185

NUB1 (UniProt H7C5N1)
inactive: [2] 0.312 | Tubastatin A 0.209

NTMT1 (UniProt S4R338)
inactive: [6] 0.043 | volasertib -0.002 | [7] 0.045

NOMO1 (UniProt Q15155)
inactive: [6] 0.072 | barasertib -0.026 | [1] -0.026 | volasertib 0.037 | [2] 0.009 | [8] 0.341 | [9] -0.224 | saracatinib 0.046 | sotrastaurin -0.011 | alvocidib 0.21 | Tubastatin A -0.079 | [3] -0.129 | [4] -0.05 | encorafenib -0.191 | [5] -0.028 | alisertib 0.056 | [7] -0.078 | gefitinib 0.08
